In the supplement of paper PMC10849652:
The list shows a part of the results.

Sequences of proteins named here, by UniProt entry; tags and fusion partners are left off. A change or cut given only in a name is not applied to a line headed by its entry.
UniProt Q96AD5: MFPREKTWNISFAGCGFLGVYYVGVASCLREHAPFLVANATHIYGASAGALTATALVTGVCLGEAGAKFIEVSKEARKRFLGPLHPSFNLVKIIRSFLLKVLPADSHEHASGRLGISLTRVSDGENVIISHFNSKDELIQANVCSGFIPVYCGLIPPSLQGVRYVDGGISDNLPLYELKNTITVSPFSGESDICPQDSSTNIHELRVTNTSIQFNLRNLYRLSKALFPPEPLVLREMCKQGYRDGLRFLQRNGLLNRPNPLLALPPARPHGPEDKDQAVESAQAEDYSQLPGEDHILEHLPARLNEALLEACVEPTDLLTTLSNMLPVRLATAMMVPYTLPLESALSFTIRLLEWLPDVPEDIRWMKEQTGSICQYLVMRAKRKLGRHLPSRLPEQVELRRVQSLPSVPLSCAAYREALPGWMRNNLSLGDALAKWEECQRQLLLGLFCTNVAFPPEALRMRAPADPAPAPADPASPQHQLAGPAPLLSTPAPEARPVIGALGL
UniProt Q8IWE5: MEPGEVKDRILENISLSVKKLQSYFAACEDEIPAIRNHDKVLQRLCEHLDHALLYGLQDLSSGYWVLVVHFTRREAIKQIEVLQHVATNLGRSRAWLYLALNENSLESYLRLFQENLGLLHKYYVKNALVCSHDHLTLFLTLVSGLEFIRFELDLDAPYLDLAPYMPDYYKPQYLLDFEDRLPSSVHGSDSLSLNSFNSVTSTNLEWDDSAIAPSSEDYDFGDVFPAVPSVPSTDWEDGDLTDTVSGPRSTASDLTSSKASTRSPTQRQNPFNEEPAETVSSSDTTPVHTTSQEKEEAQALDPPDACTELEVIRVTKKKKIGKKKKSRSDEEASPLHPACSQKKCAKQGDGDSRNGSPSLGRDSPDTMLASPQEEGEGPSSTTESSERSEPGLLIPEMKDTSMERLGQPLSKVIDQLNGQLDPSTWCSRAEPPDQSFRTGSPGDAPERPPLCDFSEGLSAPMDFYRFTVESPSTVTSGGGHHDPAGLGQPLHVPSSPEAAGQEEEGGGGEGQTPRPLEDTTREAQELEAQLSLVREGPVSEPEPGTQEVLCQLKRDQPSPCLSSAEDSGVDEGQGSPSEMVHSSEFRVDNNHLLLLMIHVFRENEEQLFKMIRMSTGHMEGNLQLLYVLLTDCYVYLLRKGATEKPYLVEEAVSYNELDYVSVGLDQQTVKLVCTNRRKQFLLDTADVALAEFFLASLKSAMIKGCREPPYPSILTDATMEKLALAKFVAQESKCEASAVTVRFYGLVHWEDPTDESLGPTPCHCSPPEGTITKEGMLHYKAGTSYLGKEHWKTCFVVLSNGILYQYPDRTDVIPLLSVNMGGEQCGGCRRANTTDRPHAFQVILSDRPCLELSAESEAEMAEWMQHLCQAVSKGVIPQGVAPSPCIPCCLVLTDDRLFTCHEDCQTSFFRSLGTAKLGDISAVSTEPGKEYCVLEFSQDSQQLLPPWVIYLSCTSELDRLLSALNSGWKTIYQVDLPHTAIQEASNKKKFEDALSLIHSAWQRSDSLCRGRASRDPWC
UniProt P05423: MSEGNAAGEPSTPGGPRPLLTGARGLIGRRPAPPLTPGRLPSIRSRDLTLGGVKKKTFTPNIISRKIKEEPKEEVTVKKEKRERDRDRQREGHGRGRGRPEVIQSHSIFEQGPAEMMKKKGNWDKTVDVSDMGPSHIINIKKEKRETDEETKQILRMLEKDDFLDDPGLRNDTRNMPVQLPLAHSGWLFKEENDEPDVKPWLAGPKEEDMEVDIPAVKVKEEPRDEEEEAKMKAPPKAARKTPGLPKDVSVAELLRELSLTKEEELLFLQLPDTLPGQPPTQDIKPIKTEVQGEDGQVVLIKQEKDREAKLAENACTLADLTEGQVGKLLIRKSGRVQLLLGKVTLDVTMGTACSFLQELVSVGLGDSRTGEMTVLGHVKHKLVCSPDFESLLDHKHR
UniProt Q14181: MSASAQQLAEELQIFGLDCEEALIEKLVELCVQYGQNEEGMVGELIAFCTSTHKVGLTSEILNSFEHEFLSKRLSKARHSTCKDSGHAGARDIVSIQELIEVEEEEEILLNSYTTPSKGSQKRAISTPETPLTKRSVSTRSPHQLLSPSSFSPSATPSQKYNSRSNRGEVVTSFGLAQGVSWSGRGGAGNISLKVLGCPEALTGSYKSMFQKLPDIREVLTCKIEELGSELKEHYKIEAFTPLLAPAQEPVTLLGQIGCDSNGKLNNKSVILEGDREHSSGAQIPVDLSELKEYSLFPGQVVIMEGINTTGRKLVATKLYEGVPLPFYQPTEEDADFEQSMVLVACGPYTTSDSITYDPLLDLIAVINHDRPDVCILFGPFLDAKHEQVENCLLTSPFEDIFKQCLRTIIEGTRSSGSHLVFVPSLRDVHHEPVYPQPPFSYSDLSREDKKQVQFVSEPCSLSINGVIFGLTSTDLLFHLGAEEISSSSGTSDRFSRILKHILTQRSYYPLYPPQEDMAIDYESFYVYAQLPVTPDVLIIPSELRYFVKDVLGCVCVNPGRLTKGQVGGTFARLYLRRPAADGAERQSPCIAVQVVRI
UniProt Q15063: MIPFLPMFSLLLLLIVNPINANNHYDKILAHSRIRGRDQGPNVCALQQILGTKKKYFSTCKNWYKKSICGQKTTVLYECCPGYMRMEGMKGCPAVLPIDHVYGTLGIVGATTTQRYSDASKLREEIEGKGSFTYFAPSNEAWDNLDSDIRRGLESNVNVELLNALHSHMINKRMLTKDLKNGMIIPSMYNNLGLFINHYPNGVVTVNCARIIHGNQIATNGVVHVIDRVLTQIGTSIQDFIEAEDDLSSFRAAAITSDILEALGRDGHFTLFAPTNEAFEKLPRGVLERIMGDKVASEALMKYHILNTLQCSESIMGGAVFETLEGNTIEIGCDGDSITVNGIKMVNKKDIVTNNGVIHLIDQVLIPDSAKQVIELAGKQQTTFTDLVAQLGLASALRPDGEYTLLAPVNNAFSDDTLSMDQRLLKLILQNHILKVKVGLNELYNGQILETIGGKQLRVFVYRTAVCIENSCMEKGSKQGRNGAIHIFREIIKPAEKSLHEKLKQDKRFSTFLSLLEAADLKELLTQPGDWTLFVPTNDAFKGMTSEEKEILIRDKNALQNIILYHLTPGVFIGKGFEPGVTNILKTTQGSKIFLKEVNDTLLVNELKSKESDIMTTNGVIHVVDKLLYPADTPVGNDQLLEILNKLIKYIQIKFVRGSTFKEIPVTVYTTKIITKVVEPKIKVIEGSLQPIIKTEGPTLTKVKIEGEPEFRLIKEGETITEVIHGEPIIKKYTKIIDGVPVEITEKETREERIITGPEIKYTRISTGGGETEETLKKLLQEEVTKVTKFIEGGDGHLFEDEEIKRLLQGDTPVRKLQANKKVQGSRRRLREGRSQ
UniProt A8CG34, whole entry, looked up: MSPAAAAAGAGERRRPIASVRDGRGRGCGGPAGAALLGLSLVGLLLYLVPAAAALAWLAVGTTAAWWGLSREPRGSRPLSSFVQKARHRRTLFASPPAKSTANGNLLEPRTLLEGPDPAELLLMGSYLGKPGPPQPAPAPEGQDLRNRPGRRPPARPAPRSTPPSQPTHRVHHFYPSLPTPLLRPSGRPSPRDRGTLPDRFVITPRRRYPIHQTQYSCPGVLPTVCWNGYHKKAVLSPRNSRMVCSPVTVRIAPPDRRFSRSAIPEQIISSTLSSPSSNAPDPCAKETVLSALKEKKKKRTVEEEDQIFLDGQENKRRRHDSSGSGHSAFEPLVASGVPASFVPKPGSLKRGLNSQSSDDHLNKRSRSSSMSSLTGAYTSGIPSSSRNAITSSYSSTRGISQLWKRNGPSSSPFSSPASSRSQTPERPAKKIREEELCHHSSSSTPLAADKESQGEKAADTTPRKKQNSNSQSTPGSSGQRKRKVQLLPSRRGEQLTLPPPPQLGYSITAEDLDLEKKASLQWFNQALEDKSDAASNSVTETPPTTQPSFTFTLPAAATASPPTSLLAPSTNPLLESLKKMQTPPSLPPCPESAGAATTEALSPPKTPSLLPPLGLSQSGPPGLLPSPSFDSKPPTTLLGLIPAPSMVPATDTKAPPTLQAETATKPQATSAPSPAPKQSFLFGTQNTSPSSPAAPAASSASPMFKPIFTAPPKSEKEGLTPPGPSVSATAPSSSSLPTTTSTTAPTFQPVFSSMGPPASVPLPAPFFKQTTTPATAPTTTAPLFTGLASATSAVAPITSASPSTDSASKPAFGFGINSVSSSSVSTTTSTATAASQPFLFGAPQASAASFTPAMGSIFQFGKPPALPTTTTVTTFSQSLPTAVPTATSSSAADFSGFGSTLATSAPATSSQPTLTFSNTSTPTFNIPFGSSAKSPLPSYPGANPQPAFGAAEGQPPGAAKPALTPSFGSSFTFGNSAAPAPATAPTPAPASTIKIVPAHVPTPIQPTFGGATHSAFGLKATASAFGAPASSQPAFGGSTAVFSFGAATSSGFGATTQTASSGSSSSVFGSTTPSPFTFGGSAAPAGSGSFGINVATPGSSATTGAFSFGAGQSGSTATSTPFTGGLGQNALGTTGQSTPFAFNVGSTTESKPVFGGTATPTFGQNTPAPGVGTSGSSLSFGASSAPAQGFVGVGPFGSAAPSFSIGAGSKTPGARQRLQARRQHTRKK

Key:
Experiment in all cases: log2 fold change, soluble protein after heating vs DMSO (PISA); higher = thermal stabilisation; K562 lysate, 10 uM; active = over 0.2 and 3.5 SD of the protein, either way, in both replicates (recomputed)
[1] = compound: C1=CC=C(C=C1)[C@H](COC2=CC3=C(C=C2)NC(=O)N3)NC(=O)C4=CC=CN(C4=O)CC5=CC(=C(C=C5)F)F
Method in brief: (§1)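 Following dounce homogenisation of K562 pellets in PBS pH 7.4 with 1 mM MgCl2, crude extract at 1 mg/mL protein was incubated for 30 min with 10 μM compound. Aliquots were then heated for 3 min over 48°C-58°C and pooled, NP-40 was added to 0.5% at 4°C, and soluble protein was recovered as the supernatant at 21,000xg for 90 min. Channel-sum-equalised TMTpro 16plex LC-MS/MS quantified this protein. Each value, from duplicates, is a log-two fold change in thermal stability relative to solvent controls.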

[2] = compound: CC1=C(SC2=C1C(=N[C@H](C3=NN=C(N32)C)CC(=O)N)C4=CC=C(C=C4)Cl)C
Method in brief: as §1

[3] = compound: CC1=C2C(=CC=C1)N=C(N(C2=O)C3=CC=CC=C3C)CN4C=NC5=C(N=CN=C54)N
Method in brief: as §1

[4] = compound: Cc1sc2c(c1C)C(c1ccc(Cl)cc1)=N[C@@H](CC(=O)OC(C)(C)C)c1nnc(C)n1-2
Method in brief: as §1

[5] = compound: c1ccc([C@@H]2C[C@H]2NC2CCNCC2)cc1
Method in brief: as §1

Measured: log2 fold change

PNKP (UniProt Q96T60)
inactive: [1] -0.03 | [2] 0.068 | [3] 0.097 | [4] -0.079 | [5] -0.179

PNPLA2 (UniProt Q96AD5)
inactive: [1] -0.02 | [2] -0.054 | [3] -0.033 | [4] 0.016 | [5] -0.064

POLR2C (UniProt P19387)
inactive: [1] -0.041 | [2] -0.011 | [3] 0.036 | [4] 0.049 | [5] -0.007

POLR2I (UniProt P36954)
inactive: [1] 0.055 | [2] -0.113 | [3] 0.018 | [4] 0.054 | [5] -0.012

PLEKHM2 (UniProt Q8IWE5)
inactive: [1] -0.001 | [2] 0.031 | [3] 0.005 | [4] -0.039 | [5] 0.003

POLR3D (UniProt P05423)
inactive: [1] -0.005 | [2] 0.023 | [3] -0.015 | [4] -0.067 | [5] -0.033

POLA2 (UniProt Q14181)
inactive: [1] 0.01 | [2] 0.037 | [3] -0.04 | [4] -0.005 | [5] 0.026

POSTN (UniProt Q15063)
inactive: [1] -0.036 | [2] 0.064 | [3] 0.037 | [5] 0.003

POLR2F (UniProt U3KPV3)
inactive: [4] -0.113

POM121C (UniProt A8CG34)
inactive: [1] 0.058 | [2] 0.042 | [5] -0.02

Retrieved one by one from the list above (two):
PNKP (UniProt Q96T60)
inactive: [1] -0.03 | [2] 0.068 | [3] 0.097 | [4] -0.079 | [5] -0.179

PNPLA2 (UniProt Q96AD5)
inactive: [1] -0.02 | [2] -0.054 | [3] -0.033 | [4] 0.016 | [5] -0.064
